PubChem BioAssay AID256 (DTP/NCI, 2004)
The list does not hold the whole screen: it is rich in T/C values a quarter to a half above the control, in often repeated tests (any T/C) and in doses without a T/C. Other doses and runs of a compound stand elsewhere. T/C: endpoint of the treated group in % of that of the vehicle group. Some entries give survivors of the animals treated and no T/C: the source files T/C as zero there, which appears to mark a toxic dose or a test without result, not a measured value. Some doses without a T/C left all or most animals alive at the check, yet need not have been tolerated: the source hardly ever lists a survival T/C far under the control, and the zero likely stands for such cases as well. Counts of survivors are from the toxicity check (mostly the fifth day) where no day follows; animals may have died later. Schedules are NCI's codes, read here as Q, the interval in days (D) or hours (H), X, the number of doses. Some entries hold several experiments; the values are given in rising order. For survival time, this PubChem deposit counts one and a half times the control or more as active, and values a quarter to a half above the control carry no call in these data; other NCI protocols may use other cut-offs. Marks such as (2×) stand for listed records that agree. Some T/C values carry the count of animals alive at the toxicity check (mostly the fifth day); without a count, all were alive then.

Test system: CD2F1 mice, L1210 leukemia ip, survival T/C
Assay: NCI In Vivo Anticancer Drug Screen. Data for tumor model L1210 Leukemia (intraperitoneal) in CD2F1 (CDF1) mice
Conditions: higher T/C = longer survival
Procedure, shortened: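 Tumor-bearing mice (transplanted tumor) were split into treated and vehicle control groups, and the measured endpoint of each treated group was divided by that of its vehicle controls.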

[1] = T/C endpoint: mean survival time, dose: 200.0 mg/kg/injection, schedule: Q01DX009 (ip), vehicle: saline with Tween-80
[2] = T/C endpoint: mean survival time, dose: 400.0 mg/kg/injection, schedule: Q01DX009 (ip), vehicle: saline with Tween-80
[3] = T/C endpoint: mean survival time, dose: 25.0 mg/kg/injection, schedule: Q01DX009 (ip), vehicle: saline with Tween-80
[4] = T/C endpoint: mean survival time, dose: 50.0 mg/kg/injection, schedule: Q01DX009 (ip), vehicle: saline with Tween-80
[5] = T/C endpoint: mean survival time, dose: 100.0 mg/kg/injection, schedule: Q01DX009 (ip), vehicle: saline
[6] = T/C endpoint: mean survival time, dose: 200.0 mg/kg/injection, schedule: Q04DX003 (ip), vehicle: saline
[7] = T/C endpoint: mean survival time, dose: 400.0 mg/kg/injection, schedule: Q04DX003 (ip), vehicle: saline
[8] = T/C endpoint: mean survival time, dose: 12.5 mg/kg/injection, schedule: Q01DX009 (ip), vehicle: saline with Tween-80
[9] = T/C endpoint: mean survival time, dose: 100.0 mg/kg/injection, schedule: Q04DX002 (ip), vehicle: saline with Tween-80
[10] = T/C endpoint: mean survival time, dose: 200.0 mg/kg/injection, schedule: Q04DX002 (ip), vehicle: saline with Tween-80
[11] = T/C endpoint: mean survival time, dose: 400.0 mg/kg/injection, schedule: Q04DX002 (ip), vehicle: saline with Tween-80
[12] = T/C endpoint: mean survival time, dose: 25.0 mg/kg/injection, schedule: Q04DX002 (ip), vehicle: saline with Tween-80

For `COc1cccc2c1C(=O)c1c(O)c3c(c(O)c1C2=O)C[C@@](O)(C(=O)COC(=O)Cc1ccccc1)C[C@@H]3OC1CC(N)C(O)C(C)O1` (stereo not given in full), the T/C (T/C endpoint: mean survival time, dose: 0.5 mg/kg/injection, schedule: Q01DX009 (ip), vehicle: saline with Tween-80) was 138 % of control, the T/C (T/C endpoint: mean survival time, dose: 1.0 mg/kg/injection, schedule: Q01DX009 (ip), vehicle: saline with Tween-80, evaluated on day 20) was 146 % of control and the T/C (T/C endpoint: mean survival time, dose: 1.0 mg/kg/injection, schedule: Q01DX009 (ip), vehicle: saline with Tween-80, evaluated on day 60) was 134 % of control. For the same compound, the T/C (T/C endpoint: mean survival time, dose: 2.0 mg/kg/injection, schedule: Q01DX009 (ip), vehicle: saline with Tween-80, evaluated on day 20) was 146 % of control, the T/C (T/C endpoint: mean survival time, dose: 2.0 mg/kg/injection, schedule: Q01DX009 (ip), vehicle: saline with Tween-80, evaluated on day 60) was 148 % of control and the T/C (T/C endpoint: mean survival time, dose: 2.5 mg/kg/injection, schedule: Q01DX001 (ip), vehicle: saline with Tween-80) was 129 % of control. The T/C (T/C endpoint: mean survival time, dose: 2.5 mg/kg/injection, schedule: Q04DX003 (ip), vehicle: saline with Tween-80) was 135 % of control, the T/C (T/C endpoint: mean survival time, dose: 4.0 mg/kg/injection, schedule: Q01DX009 (ip), vehicle: saline with Tween-80) was 143 % of control and the T/C (T/C endpoint: mean survival time, dose: 5.0 mg/kg/injection, schedule: Q01DX001 (ip), vehicle: saline with Tween-80) was 131 % of control. For the same compound, the T/C (T/C endpoint: mean survival time, dose: 5.0 mg/kg/injection, schedule: Q04DX003 (ip), vehicle: saline with Tween-80) was 140 % of control, the T/C (T/C endpoint: mean survival time, dose: 10.0 mg/kg/injection, schedule: Q01DX001 (ip), vehicle: saline with Tween-80) was 134 % of control and the survivor count (T/C endpoint: mean survival time, dose: 16.0 mg/kg/injection, schedule: Q01DX009 (ip), vehicle: saline with Tween-80) was 9 of 10. The survivor count (T/C endpoint: mean survival time, dose: 40.0 mg/kg/injection, schedule: Q01DX001 (ip), vehicle: saline with Tween-80) was 4 of 10 and the survivor count (T/C endpoint: mean survival time, dose: 40.0 mg/kg/injection, schedule: Q04DX003 (ip), vehicle: saline with Tween-80) was 10 of 10.
With `O=C(O)CSc1nc(-c2ccccc2)c(-c2ccccc2)n1-c1ccccn1` the survivor count (T/C endpoint: mean survival time, dose: 200.0 mg/kg/injection, schedule: Q01DX009 (ip), vehicle: water) was 1 of 6 and the survivor count (T/C endpoint: mean survival time, dose: 400.0 mg/kg/injection, schedule: Q01DX009 (ip), vehicle: water) was 0 of 6.
`COc1cc2c(cc1Oc1c(O)c(OC)cc3c1C(C)N(C)CC3)C(C)N(C)CC2` (stereo not given) was tested, and the survivor count (T/C endpoint: mean survival time, dose: 150.0 mg/kg/injection, schedule: Q01DX001 (ip), vehicle: saline) was 3 of 6 and the survivor count (T/C endpoint: mean survival time, dose: 300.0 mg/kg/injection, schedule: Q01DX001 (ip), vehicle: saline) was 0 of 6.
In the case of `CCN(CC)CCN1CC2C3C=CC(C3)C2C1` (stereo not given), the survivor count [1] is reported as 0 of 6 and the survivor count [2] is reported as 0 of 6.
With `Cc1cc(N(CCOS(C)(=O)=O)CCOS(C)(=O)=O)ccc1C=Nc1ccc(-c2csc(Cc3ccccc3)n2)cc1` the T/C [3] was 130 % of control and the T/C [4] was 136 % of control.
With `CCOP(=O)(OCC)C1=C(SCC)C(F)(F)C(F)(F)C1(F)F` the survivor count (T/C endpoint: mean survival time, dose: 150.0 mg/kg/injection, schedule: Q01DX001 (ip), vehicle: other) was 2 of 6 and the survivor count (T/C endpoint: mean survival time, dose: 300.0 mg/kg/injection, schedule: Q01DX001 (ip), vehicle: other) was 0 of 6.
With `O=C(NC1CCc2ccccc21)c1ccccc1` (stereo not given) the survivor count (T/C endpoint: mean survival time, dose: 100.0 mg/kg/injection, schedule: Q01DX009 (ip), vehicle: saline with Tween-80) was 6 of 6 and the survivor count [1] was 6 of 6.
With `[Br][Pt+2][Br].[NH-]CC(=O)O.[NH-]CC(=O)O` the survivor count (T/C endpoint: mean survival time, dose: 200.0 mg/kg/injection, schedule: Q01DX009 (ip), vehicle: Klucel (hydroxypropylcellulose) (HPC)) was 5 of 5 and the survivor count (T/C endpoint: mean survival time, dose: 400.0 mg/kg/injection, schedule: Q04DX003 (ip), vehicle: Klucel (hydroxypropylcellulose) (HPC)) was 2 of 6.
In the case of `CC1CC(O)C([N+](=O)[O-])C(O)C1` (stereo not given), the survivor count [5] is reported as 0 of 6, the survivor count (T/C endpoint: mean survival time, dose: 200.0 mg/kg/injection, schedule: Q01DX009 (ip), vehicle: saline) is reported as 0 of 6 and the survivor count (T/C endpoint: mean survival time, dose: 400.0 mg/kg/injection, schedule: Q01DX009 (ip), vehicle: saline) is reported as 0 of 6.
With `O=C(C[n+]1ccc2ccccc2c1)c1ccc(Br)cc1` the survivor count [5] was 1 of 6, the survivor count [6] was 2 of 6 and the survivor count [7] was 2 of 6.
For `Cc1ccc2c(c1)N(CCCN(C)C)c1ccccc1S2`, the survivor count (T/C endpoint: mean survival time, dose: 100.0 mg/kg/injection, schedule: Q04DX003 (ip), vehicle: saline) was 3 of 6, the survivor count [6] was 0 of 6 and the survivor count [7] was 0 of 6.
For `CCCCCCCCCCCCOP(=S)(S)OCCCCCCCCCCCC.[Cd]`, the survivor count (T/C endpoint: mean survival time, dose: 6.25 mg/kg/injection, schedule: Q01DX009 (ip), vehicle: saline with Tween-80) was 6 of 6, the survivor count [8] was 6 of 6 and the survivor count [3] was 5 of 6.
For `CCN1CC2c3cc(OC)c(OC)cc3CC(c3ccccc3)C2C1` (stereo not given), the survivor count (T/C endpoint: mean survival time, dose: 100.0 mg/kg/injection, schedule: Q04DX003 (ip), vehicle: saline with Tween-80) was 3 of 6, the survivor count (T/C endpoint: mean survival time, dose: 200.0 mg/kg/injection, schedule: Q04DX003 (ip), vehicle: saline with Tween-80) was 0 of 6 and the survivor count (T/C endpoint: mean survival time, dose: 400.0 mg/kg/injection, schedule: Q04DX003 (ip), vehicle: saline with Tween-80) was 0 of 6.
For `CN(Cc1cnc2nc(N)nc(N)c2c1)c1ccc(C(=O)NC(CCC(=O)O)C(=O)O)cc1` (stereo not given), the T/C (T/C endpoint: median survival time, dose: 2.0 mg/kg/injection, schedule: Q01DX005 (ip), vehicle: other) was 140 % of control.
`CC(=O)c1ccc2c3c(ccc([N+](=O)[O-])c13)CC2` was tested, and the survivor count [1] was 3 of 6 and the survivor count [2] was 3 of 6.
In the case of `O=CC(NC(=O)N(CCCl)N=O)C(O)C(O)C(O)CO` (stereo not given), the T/C (T/C endpoint: mean survival time, dose: 1.87 mg/kg/injection, schedule: Q01DX009 (ip), vehicle: saline) is reported as 140 % of control, the T/C (T/C endpoint: mean survival time, dose: 1.88 mg/kg/injection, schedule: Q01DX009 (ip), vehicle: citric acid) is reported as 148 % of control and the T/C (T/C endpoint: mean survival time, dose: 1.9 mg/kg/injection, schedule: Q01DX009 (ip), vehicle: water) is reported as 147 % of control. The T/C (T/C endpoint: mean survival time, dose: 4.0 mg/kg/injection, schedule: Q01DX001 (ip), vehicle: water) was 128 % of control, the T/C (T/C endpoint: mean survival time, dose: 6.25 mg/kg/injection, schedule: Q01DX001 (ip), vehicle: saline) was 134 % of control and the T/C (T/C endpoint: mean survival time, dose: 7.0 mg/kg/injection, schedule: Q01DX001 (ip), vehicle: saline) was 138 % of control. The T/C (T/C endpoint: mean survival time, dose: 7.5 mg/kg/injection, schedule: Q01DX009 (ip), vehicle: citric acid) was 147 % of control [5 of 6 alive], the survivor count (T/C endpoint: mean survival time, dose: 15.0 mg/kg/injection, schedule: Q01DX009 (ip), vehicle: citric acid) was 3 of 6 and 6 of 6 and the survivor count (T/C endpoint: mean survival time, dose: 30.0 mg/kg/injection, schedule: Q01DX009 (ip), vehicle: citric acid) was 0 of 6 and 5 of 6. The survivor count (T/C endpoint: mean survival time, dose: 30.0 mg/kg/injection, schedule: Q01DX009 (ip), vehicle: saline) was 6 of 6, the survivor count (T/C endpoint: mean survival time, dose: 30.0 mg/kg/injection, schedule: Q01DX009 (ip), vehicle: water) was 6 of 6 and the survivor count (T/C endpoint: mean survival time, dose: 64.0 mg/kg/injection, schedule: Q01DX001 (ip), vehicle: water) was 5 of 6. For the same compound, the T/C (T/C endpoint: median survival time, dose: 9.0 mg/kg/injection, schedule: Q01DX001 (ip), vehicle: saline) was 125 % of control.
In the case of `Cc1csc2nccc(Cl)c12`, the survivor count [9] is reported as 2 of 3, the survivor count [10] is reported as 1 of 3 and the survivor count [11] is reported as 1 of 3.
In the case of `CCOC(=O)c1ccc(NC(=O)Nc2cc(Cl)c(Cl)cc2C)cc1`, the survivor count [8] is reported as 6 of 6, the survivor count (T/C endpoint: mean survival time, dose: 12.5 mg/kg/injection, schedule: Q04DX003 (ip), vehicle: saline with Tween-80) is reported as 6 of 6 and the survivor count (T/C endpoint: mean survival time, dose: 25.0 mg/kg/injection, schedule: Q01DX001 (ip), vehicle: saline with Tween-80) is reported as 6 of 6. For the same compound, the T/C [3] was 86 % of control, the survivor count [3] was 3 of 3 and 6 of 6 and the T/C [12] was 91 and 92 % of control (2×). The survivor count [12] was 3 of 3, the survivor count [4] was 3 of 3 and 6 of 6 and the survivor count (T/C endpoint: mean survival time, dose: 50.0 mg/kg/injection, schedule: Q04DX002 (ip), vehicle: saline with Tween-80) was 3 of 3. The T/C [9] was 87 and 88 % of control (2×), the survivor count [9] was 3 of 3 and the survivor count [10] was 3 of 3 and 6 of 6. The survivor count [11] was 6 of 6.
